Our source for the binding values is article PMC4506499.

This assay addresses Human Upf1 helicase domain (Upf1-HD, 295-914 amino acids) (human) (UniProt Q92900). Kind of assay: pull-down; calmodulin-binding peptide-Upf1-HD as bait, Upf1-HD as prey; 'under our experimental conditions'; details only in Supplementary Fig. 3; both purified.

No constants are given. Whether binding was seen depends on the method and setting.

B1: Human Upf1 helicase domain (Upf1-HD, 295-914 amino acids) (domain or fragment, UniProt Q92900-2 295-914)
chain: RYEDAYQYQNIFGPLVKLEADYDKKLKESQTQDNITVRWDLGLNKKRIAYFTLPKTDSDMRLMQGDEICLRYKGDLAPLWKGIGHVIKVPDNYGDEIAIELRSSVGAPVEVTHNFQVDFVWKSTSFDRMQSALKTFAVDETSVSGYIYHKLLGHEVEDVIIKCQLPKRFTAQGLPDLNHSQVYAVKTVLQRPLSLIQGPPGTGKTVTSATIVYHLARQGNGPVLVCAPSNIAVDQLTEKIHQTGLKVVRLCAKSREAIDSPVSFLALHNQIRNMDSMPELQKLQQLKDETGELSSADEKRYRALKRTAERELLMNADVICCTCVGAGDPRLAKMQFRSILIDESTQATEPECMVPVVLGAKQLILVGDHCQLGPVVMCKKAAKAGLSQSLFERLVVLGIRPIRLQVQYRMHPALSAFPSNIFYEGSLQNGVTAADRVKKGFDFQWPQPDKPMFFYVTQGQEEIASSGTSYLNRTEAANVEKITTKLLKAGAKPDQIGIITPYEGQRSYLVQYMQFSGSLHTKLYQEVEIASVDAFQGREKDFIILSCVRANEHQGIGFLNDPRRLNVALTRARYGVIIVGNPKALSKQPLWNHLLNYYKEQKVLVEGPLNNLRESLMQFS
Turning to B1, the binding result is reported as “no binding”.
